Data taken from PubChem BioAssay AID1159506, deposited by NCATS (2015).

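Genome-wide siRNA knockdown in TC32 Ewing sarcoma cells, comparing luciferase light from an NR0B1-promoter reporter with a CMV-promoter reporter 48 hours after transfection.
Each siRNA was applied at 20 nM.
A z-score of the log NR0B1-over-CMV signal, less the median of siRNAs with the same seed; more negative means a stronger specific loss of the NR0B1 reporter.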

The strongest results of the screen are mostly left out here.
Sequences are the guide (antisense) strand, without overhang.

| strand | gene | seed-corrected z-score |
|---|---|---|
| `AACGGGAAAUUUGUCCUUG` | HOXD8 | -0.202 |
| `AUUCUAACCAGCUUGGAGU` | SYNE3 | -0.1913 |
| `AGAUUUACAAACGUAUACC` | PRMT9 | 0.2706 |
| `AUAUUAGGAACAGCUACGG` | TXNDC15 | 0.7925 |
| `UGUAGUUGCAGAACCUAGG` | ZNF106 | -0.3286 |
| `UUGGAACUCAAACCUUUGC` | ZNF621 | 1.371 |
| `UGUACUUCUCCUGUAACUG` | MIS12 | -0.4768 |
| `AGCUGUAGCACAUAGUAGG` | MCHR1 | -0.3023 |
| `UGCGAAUAAACUGUAGUAC` | PARP4 | 0.03811 |
| `UCGGAUGUCAUACAAAAGC` | TSPAN1 | 0.738 |
| `UGAUCCAUGAGAUCACAGC` | KLHL3 | -0.1045 |
| `ACAGAGAAGACAGACGAUG` | TVP23C | -0.3381 |
| `UUCUGUUCACUGAUCUGCC` | COL4A5 | -0.5448 |
| `UACAUUGACGUAUGCUUGC` | GTF3C5 | 1.028 |
| `UUAUAUAAUGCUAUCUACU` | RPEL1 | 0.8206 |
| `UUUGUAAUCUAUGCGCAGG` | SGIP1 | 0.8671 |
| `UUCUGCGUCACACCAUUGC` | NANOG | -0.5988 |
| `UUCUCUCACAUAUGGAAGC` | FAM220A | 2.044 |
| `UAUCAAUGAUCUUUAGCAC` | TRIM32 | -0.1648 |
| `UCAGAAGUAAUAUGUAUCC` | SLCO1C1 | 0.634 |
| `AUGGUGAUGAGCCUUAGGC` | CNTNAP3 | -0.02021 |
| `UGCGCAAGAAAUUCUGUAG` | RASSF3 | -0.04641 |
| `UCAUCUAAAAUGUUUAGGG` | PDE7A | -0.185 |
| `UGGUCGAUCAUCUCCAGAC` | HPD | 0.2413 |
| `UGAUGUUUACAGGUUAAUG` | CRISP3 | -0.8092 |
| `AUCGUUUUUGAAAUGGUUG` | MFSD6 | -0.4319 |
| `ACUUCAACAGGCCCGAUCC` | ACSM5 | -0.5095 |
| `UCCCUUCUCAUUAGGCACC` | AGER | -0.2766 |
| `AAAGGUUCUCCUUACCUCC` | FAM43B | -0.2005 |
| `UAAAUCCUAAAGGAAUAGC` | LOC340268 | -0.6931 |
| `UGGAUAAACAGAUAUGACC` | UBE2W | -0.5763 |
| `UGAGGGCACAGAAACCUUC` | SLC4A9 | 0.05494 |
| `AACGUAAGAUUUACUGUUG` | ARMC3 | -0.9821 |
| `UACAUCUUUAUGACUAACC` | CAPZA1 | 1.346 |
| `UUUUCGAAAACCAGUAAAC` | ANKRD50 | 0.8779 |
| `ACUGAUACCAACAUACACC` | RSF1 | -0.02971 |
| `UUAUGAAAGUGACAUAUUG` | CLLU1 | -0.8801 |
| `AUUCGUCCCACUACGAUGU` | EXOSC2 | 0.7751 |
| `AUAGCACUCAUCAAAGUCC` | ACPP | 0.41 |
| `UAGGAGAUGACCGUUUUGC` | OR9I1 | 0.2728 |
| `UUGAUUUUACGUUAAUUUC` | OSTCP1 | 1.7 |
| `UGACAUUGUACCAAUGAGC` | POLE | -1.783 |
| `UUAGUAACUUUCCAAACUC` | EIF3J | 0.5117 |
| `AAUGUCAGCAUUCAUGAUG` | CNIH2 | -0.2952 |
| `UGUGGAUGUAGUUUCACCU` | PRRT4 | -0.1234 |
| `AAUCGUAUGAAGCAACAGC` | NPM2 | -0.3358 |
| `AAAGCGUAGAGAGUUGAGG` | KIFC1 | 0.3631 |
| `UUAACUUCCUGUGCCCUAC` | TANC1 | 0.5802 |
| `AGACGAUUGACAACCAUCA` | EID1 | 0.7619 |
| `UUUGGAACAGGUCUGGAUG` | SCG2 | 0.05885 |
| `UUUAAAAUCUUCAUAGUCC` | APOBEC3C | -0.06686 |
| `UUGGGCAACAGAUUGCAGU` | CLIC5 | -0.8953 |
| `AAUCGCCUCCGAGUCAUUC` | VPS37C | -0.6752 |
| `UUUGCGCAAAGUAGUAAUG` | PUM2 | -0.1805 |
| `UGACCAUCAGGAUCCACUG` | LOC79999 | 0.1091 |
| `AAAAUGGAGAUAACCAAGC` | PIGH | -0.9332 |
| `AACUGAAAUACUGUAAUCC` | MAP3K7CL | 0.9053 |
| `UCACUCUCUAAAUAGCUGG` | LINC01249 | -0.399 |

Some entries from above, unchanged:

strand,gene,seed-corrected z-score
UGACAUUGUACCAAUGAGC,POLE,-1.783
AGACGAUUGACAACCAUCA,EID1,0.7619
UGGAUAAACAGAUAUGACC,UBE2W,-0.5763
UUCUCUCACAUAUGGAAGC,FAM220A,2.044